Results are given in words; binding and its absence hold for the method and conditions named. Some results given as binding are weak or reduced against the parent protein; the word gives no strength. For some of these results: Tags and fused reporters may be left off the sequences shown. Blank lines part the entries; values can stand above or below the binder they belong to.
Key:
[1] = molecular target: T1, huCLL1-His (human) (UniProt Q5QGZ9); test: ELISA, coated antigen
T1 sequence (looked up): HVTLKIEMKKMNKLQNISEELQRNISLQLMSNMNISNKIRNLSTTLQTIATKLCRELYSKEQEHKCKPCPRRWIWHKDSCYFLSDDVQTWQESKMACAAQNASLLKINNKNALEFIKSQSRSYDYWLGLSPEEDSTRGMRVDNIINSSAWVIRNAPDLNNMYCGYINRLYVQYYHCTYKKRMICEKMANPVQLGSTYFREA

[2] = molecular target: hFc-Human CLL1 (human); test: ELISA, coated antigen
[3] = molecular target: human CLL-1 on cells (human) (UniProt Q5QGZ9); test: FACS, HL60 and U937 cells
[4] = molecular target: human CLL-1 on cells (human) (UniProt Q5QGZ9); test: FACS on CLL1-expressing cell lines
[5] = molecular target: hFc-Cynomolgus CLL1 (cynomolgus); test: ELISA, 50 and 100 ng/well coated antigen; stronger than reference 6E7

binding [1]: binds
B1: ch33C2(NA) (antibody, human IgG1, kappa, N297A, V domains shown)
VH: EVQLQQSGPELVKPGASMKISCKASGYSFTGYAMNWVKQSHGKNLEWIGLINPYNGGAMYNQKFKGKATLTVDKSTSTAYMELLSLTSEDSAVYYCARDYRYEGHLDYWGQGTTLTVSS
VL: QIVLTQSPVIMSASPGEKVTMTCSATSSVSYMHWYQQKSGTSPKRWIYDTSKLASGVPVRFSGSGSGTSYSLTISRMEAEDAATYYCQQWSSDSPTFGVGTKLELKR

binding [2]: binds
binding [1]: binds
binding [3]: binds
binding [4]: binds
binding [5]: binds
B2: ch84A2(NA/N12S) (antibody, human IgG1, kappa, N297A, V domains shown)
VH: EVQLQQSGPELVKSGASVKMSCKASGYTFTSYVIHWVKQMPGQGLEWIGLFNPYNDDVNYNEKFKGKATLTSDKYSSTAYLDLSSLTSEDSAVYYCAREGVHYGRPWFGYWGQGTLVTVSA
VL: DIKMTQSPSSMSASLGERVTITCKASQDIKSYLNWFQQKPGKSPKTLIYRASRLVDGVPARFSGSESGQDYSLTISSLEFEDMGIYYCLQYDEFPLTFGAGTKLELKR

binding [1]: binds
B3: ch16C6(NA) (antibody, human IgG1, kappa, N297A, V domains shown)
VH: EVQLQQSGPELVKPGASVKISCKASGYSFTGYYMHWVKQSHVKSLEWIGHVNPYNGATSFNRNFKDKASLTVDKSSSTAYMELHSLTSEDSAVYYCGRSAYGYYERHFDYWGQGTTLTVSS
VL: DIVLTQSPASLAVSLGQRATISCKASQSVDYDADSYMNWYQQKPGQPPKLLIYAASNLQSGIPARFSGSGSGTDFTLNIHPVEEEDAATYYCQQSDRDPLTFGAGTKLELKR
